From paper doi:10.1101/2021.04.15.440012

Amino acid sequences for entries named in this document (tags omitted). Residues count along the entry.
UniProt P07724, 25-608: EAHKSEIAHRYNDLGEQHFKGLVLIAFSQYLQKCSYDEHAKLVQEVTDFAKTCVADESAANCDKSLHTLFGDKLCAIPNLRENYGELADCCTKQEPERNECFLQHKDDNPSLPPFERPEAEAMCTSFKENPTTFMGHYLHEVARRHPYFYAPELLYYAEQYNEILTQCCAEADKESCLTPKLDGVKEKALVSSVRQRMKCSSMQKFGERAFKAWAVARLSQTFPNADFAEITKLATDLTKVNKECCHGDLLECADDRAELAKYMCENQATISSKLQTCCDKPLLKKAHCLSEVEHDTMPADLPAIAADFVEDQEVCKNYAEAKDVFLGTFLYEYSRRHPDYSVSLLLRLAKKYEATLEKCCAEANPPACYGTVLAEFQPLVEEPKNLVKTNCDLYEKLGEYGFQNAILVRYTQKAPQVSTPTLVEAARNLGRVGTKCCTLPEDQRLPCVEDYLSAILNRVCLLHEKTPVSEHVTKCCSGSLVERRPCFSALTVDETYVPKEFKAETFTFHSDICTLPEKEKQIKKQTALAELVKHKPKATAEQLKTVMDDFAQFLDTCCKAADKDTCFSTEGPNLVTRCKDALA
UniProt P02769, 25-607: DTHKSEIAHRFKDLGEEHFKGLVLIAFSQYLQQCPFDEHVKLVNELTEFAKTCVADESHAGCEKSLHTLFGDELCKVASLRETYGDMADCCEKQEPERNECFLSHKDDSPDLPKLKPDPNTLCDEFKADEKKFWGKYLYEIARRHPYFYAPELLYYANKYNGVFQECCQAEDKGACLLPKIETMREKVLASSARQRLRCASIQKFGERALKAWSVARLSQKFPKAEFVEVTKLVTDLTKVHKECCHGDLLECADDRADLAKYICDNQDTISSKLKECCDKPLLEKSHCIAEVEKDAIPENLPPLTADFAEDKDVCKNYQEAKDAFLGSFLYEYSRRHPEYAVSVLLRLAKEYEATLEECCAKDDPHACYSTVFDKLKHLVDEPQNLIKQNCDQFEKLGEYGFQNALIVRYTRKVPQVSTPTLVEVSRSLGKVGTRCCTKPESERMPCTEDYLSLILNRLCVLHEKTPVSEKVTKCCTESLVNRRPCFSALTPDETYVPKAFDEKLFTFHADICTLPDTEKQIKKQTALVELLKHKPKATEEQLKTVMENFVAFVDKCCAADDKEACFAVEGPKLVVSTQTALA

Experiments:
Assay in all cases: plate-based fluorescence binding assay
Conditions in all cases: 1 uM chimera; 2'-fluoro pyrimidines in the transcribed strand
[1] = target: Human serum albumin (Cy5-labeled in MST) (Homo sapiens) (UniProt P02768)
[2] = target: Mouse serum albumin (Mus musculus) (UniProt P07724)
[3] = target: Bovine serum albumin (Bos taurus) (UniProt P02769)

| Sequence | binding result [1] | binding result [2] | binding result [3] |
| --- | --- | --- | --- |
| GAUACUGAGCAUCGUACAUGAUCCCGCAACGGGCAGUAUUAAGAGGAGUUCAUUAUCAGUGCAAUUGU / CAAUUGCACUGAUAAUGAACUCCTC | binds more weakly | binds more weakly | binds more weakly |
| GCGCCGCAACAGGUGUGACUGCCCUAGCCUCCGCUGUACCAAGAGGAGUUCAUUAUCAGUGCAAUUGUU / CAAUUGCACUGAUAAUGAACUCCTC | binds | binds | binds |

Construct, isoform or probe ends are uncertain for at least one entry. A weaker result is weaker than the reference pair of the same experiment. At least one verdict rests on a figure or table, not on a statement of the authors.
